Assay results taken from patent US20240026366.
For part of these data: Where cells or extracts were used, other partners may take part. For part of these data: Weaker means in comparison with the reference protein, sequence or condition of that experiment.

Amino acid sequences for entries named in this document (tags omitted). Residues count along the entry.
UniProt P08637, 17-254: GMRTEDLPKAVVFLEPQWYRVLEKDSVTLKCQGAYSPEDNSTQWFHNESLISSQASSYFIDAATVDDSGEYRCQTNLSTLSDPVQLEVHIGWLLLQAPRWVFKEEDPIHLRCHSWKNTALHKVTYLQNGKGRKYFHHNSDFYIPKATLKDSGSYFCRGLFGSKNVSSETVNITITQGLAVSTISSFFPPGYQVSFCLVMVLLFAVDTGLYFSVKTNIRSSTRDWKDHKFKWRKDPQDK

Legend:
[1] = target: HER2 (ERBB2) on SKBR3 cells (UniProt P04626); assay: flow cytometry; details: protein on the cell surface, protein details: native on SKBR3 breast cancer cells, SA-FITC
[2] = target: CD16 (FcgammaRIII) on PBMCs / enriched NK cells (UniProt P08637); assay: flow cytometry; details: protein on the cell surface, SA-FITC
[3] = target: CD16 (FcgammaRIII) on PBMCs / enriched NK cells (UniProt P08637); assay: activity in cells; details: protein on the cell surface
[4] = SKBR3, 25 C 30 min, less than SEQ 1, label: 5'-biotin, single-stranded DNA
[5] = SKBR3, less than dsA7 and dsA10, label: biotin, single-stranded DNA
[6] = PBMCs/NK cells, less than dsA7 and dsA10, label: biotin, single-stranded DNA

| Sequence | binding result [1, 5] | binding result [2, 6] | further results |
| --- | --- | --- | --- |
| AACCGCCCAAATCCCTAAGAGTCTGCACTTGTCATTTTGTATATGTATTTGGTTTTTGGCTCTCACAGACACACTACACACGCACA [anti-HER2 aptamer SEQ 15] | – | – | binding result [1, 4]: binds more weakly |
| CCACTGCGGGGGTCTATACGTGAGGAAGAAGTGGAAAAAAAAAAAAAAAAAAAAGCAGCGGTGTGGGGGCAGCGGTGTGGGGGCAGCGGTGTGGGG / TTTTTTTTTTTTTTTTTTTT [dsA8] | – | – | binding result ([1]; SKBR3, less than dsA7 and dsA10, label: biotin, folded or branched DNA, variant of dsA5): binds more weakly; binding result ([2]; PBMCs/NK cells, less than dsA7 and dsA10, label: biotin, folded or branched DNA, variant of dsA5): binds more weakly |
| CCACTGCGGGGGTCTATACGTGAGGAAGAAGTGGAAAAAAAAAAAAAAAAAAAAGCAGCGGTGTGGGGGCAGCGGTGTGGGGGCAGCGGTGTGGGG [dsA5] | binds more weakly | binds more weakly | – |
| CCACTGCGGGGGTCTATACGTGAGGAAGAAGTGGAAAAAAAGCAGCGGTGTGGGGGCAGCGGTGTGGGGGCAGCGGTGTGGGG [dsA3] | binds more weakly | binds more weakly | – |
| CCACTGCGGGGGTCTATACGTGAGGAAGAAGTGGGCAGCGGTGTGGGGGCAGCGGTGTGGGGGCAGCGGTGTGGGG [dsA1] | binds more weakly | binds more weakly | – |
| CCACTGCGGGGGTCTATACGTGAGGAAGAAGTGGGCAGGTC [anti-CD16 aptamer SEQ 3] | – | – | binding result ([2]; PBMCs and NK cells, 1000 nM, 25 C 30 min, similar to 3G8 antibody, label: 3'-biotin, single-stranded DNA): binds |
| CCACTGCGGGGGTCTATACGTGAGGAAGAAGTGGGCAGGTCAAAAAAAAAAAAAGCAGCGGTGTGGGGGCAGCGGTGTGGGGGCAGCGGTGTGGGG [dsA4] | binds more weakly | binds more weakly | – |
| CCACTGCGGGGGTCTATACGTGAGGAAGAAGTGGGCAGGTCGCAGCGGTGTGGGGGCAGCGGTGTGGGGGCAGCGGTGTGGGG [dsA2] | binds more weakly | binds more weakly | – |
| GCAGCGGTGTGGGGGCAGCGGTGTGGGGGCAGCGGTGTGGGGAAAAAAAAAAAAAAAAAAAACCACTGCGGGGGTCTATACGTGAGGAAGAAGTGG / TTTTTTTTTTTTTTTTTTTT [dsA9] | – | – | binding result ([1]; SKBR3, less than dsA7 and dsA10, label: biotin, folded or branched DNA, variant of dsA6): binds more weakly; binding result ([2]; PBMCs/NK cells, less than dsA7 and dsA10, label: biotin, folded or branched DNA, variant of dsA6): binds more weakly |
| GCAGCGGTGTGGGGGCAGCGGTGTGGGGGCAGCGGTGTGGGGAAAAAAAAAAAAAAAAAAAACCACTGCGGGGGTCTATACGTGAGGAAGAAGTGG [dsA6] | binds more weakly | binds more weakly | – |
| GCAGCGGTGTGGGGGCAGCGGTGTGGGGGCAGCGGTGTGGGGAAAAAAAAAAAAAAAAAAAACCACTGCGGGGGTCTATACGTGAGGAAGAAGTGGGCAGGTC / TTTTTTTTTTTTTTTTTTTT [dsA10] | – | – | functional effect of the aptamer ([3]; ADCC lysis of SKBR3, at least 90% of maximum Trastuzumab cytotoxicity, folded or branched DNA, variant of dsA7, dose not given …): active |
| GCAGCGGTGTGGGGGCAGCGGTGTGGGGGCAGCGGTGTGGGGAAAAAAAAAAAAAAAAAAAACCACTGCGGGGGTCTATACGTGAGGAAGAAGTGGGCAGGTC [dsA7] | – | – | functional effect of the aptamer ([3]; ADCC lysis of SKBR3, dose-dependent up to 150 nM, inhibited by 150 nM 3G8 anti-CD16 antibody, single-stranded DNA): active |
| TCTAAAAGGATTCTTCCCAAGGGGATCCAATTCAAACAGC [anti-HER2 aptamer SEQ 16] | – | – | binding result [1, 4]: binds more weakly |
